For at least one compound, name, drawing or mass did not settle the structure.
Test system: iPSC-derived PRP cells
Assay: PRP enrichment with CD111, CD230, CD344 and CD133, on-target and off-target marker flow cytometry
Format: cell-based, human
Settings: line 31538.102

CC(=O)c1c(C)c2cnc(Nc3ccc(N4CCNCC4)cn3)nc2n(C2CCCC2)c1=O [PD0332991, palbociclib]
effect on proliferating (Ki67) cells in the enriched fraction: removed any remaining proliferating cells

Reference: patent US12110503B2, “Method for differentiation of ocular cells and use thereof” (FUJIFILM Cellular Dynamics, Inc., priority 2018, dated 2024)
